Measured values as given in patent publication US8008077B2, “Photochemical internalization for delivery of molecules into the cytosol” (priority 2000, dated 2011).

Test system: THX cells
Assay: Intracellular localisation of FITC-dextran after photochemical treatment, fluorescence microscopy
Assay type: cell-based, human
Details: 20 μg/ml AlPcS2a

FITC-dextran
intracellular localisation, illuminated cells (4 min light before 3 h 5 mg/ml FITC-dextran): the cytosol
intracellular localisation, non-illuminated cells (no light, 3 h 5 mg/ml FITC-dextran): endocytic vesicles
